Our source for the binding values is paper PMC10655684.

Sequences of proteins named here, by UniProt entry; tags and fusion partners are left off. Residues count along the entry.
UniProt P35222: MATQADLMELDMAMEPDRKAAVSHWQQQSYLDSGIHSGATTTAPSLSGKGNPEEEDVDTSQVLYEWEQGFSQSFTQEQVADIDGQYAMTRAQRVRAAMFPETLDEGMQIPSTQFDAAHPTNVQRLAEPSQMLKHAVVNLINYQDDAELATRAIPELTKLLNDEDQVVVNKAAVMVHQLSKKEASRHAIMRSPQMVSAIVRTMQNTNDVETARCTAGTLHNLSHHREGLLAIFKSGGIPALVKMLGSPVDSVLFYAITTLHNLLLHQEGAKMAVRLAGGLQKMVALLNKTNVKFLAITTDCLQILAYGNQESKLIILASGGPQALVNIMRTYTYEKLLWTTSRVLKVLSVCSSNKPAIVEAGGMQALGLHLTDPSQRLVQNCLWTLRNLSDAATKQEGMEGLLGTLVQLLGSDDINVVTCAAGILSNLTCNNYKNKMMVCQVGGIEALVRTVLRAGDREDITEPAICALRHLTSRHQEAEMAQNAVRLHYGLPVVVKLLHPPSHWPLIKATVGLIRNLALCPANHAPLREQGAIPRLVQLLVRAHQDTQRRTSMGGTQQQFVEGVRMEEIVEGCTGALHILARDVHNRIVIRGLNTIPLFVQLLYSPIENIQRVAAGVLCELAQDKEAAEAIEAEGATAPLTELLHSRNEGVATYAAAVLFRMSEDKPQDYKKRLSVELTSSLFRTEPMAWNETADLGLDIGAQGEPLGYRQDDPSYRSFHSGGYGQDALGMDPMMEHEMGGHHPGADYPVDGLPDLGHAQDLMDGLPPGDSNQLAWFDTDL
UniProt P56199, residues 29-1179: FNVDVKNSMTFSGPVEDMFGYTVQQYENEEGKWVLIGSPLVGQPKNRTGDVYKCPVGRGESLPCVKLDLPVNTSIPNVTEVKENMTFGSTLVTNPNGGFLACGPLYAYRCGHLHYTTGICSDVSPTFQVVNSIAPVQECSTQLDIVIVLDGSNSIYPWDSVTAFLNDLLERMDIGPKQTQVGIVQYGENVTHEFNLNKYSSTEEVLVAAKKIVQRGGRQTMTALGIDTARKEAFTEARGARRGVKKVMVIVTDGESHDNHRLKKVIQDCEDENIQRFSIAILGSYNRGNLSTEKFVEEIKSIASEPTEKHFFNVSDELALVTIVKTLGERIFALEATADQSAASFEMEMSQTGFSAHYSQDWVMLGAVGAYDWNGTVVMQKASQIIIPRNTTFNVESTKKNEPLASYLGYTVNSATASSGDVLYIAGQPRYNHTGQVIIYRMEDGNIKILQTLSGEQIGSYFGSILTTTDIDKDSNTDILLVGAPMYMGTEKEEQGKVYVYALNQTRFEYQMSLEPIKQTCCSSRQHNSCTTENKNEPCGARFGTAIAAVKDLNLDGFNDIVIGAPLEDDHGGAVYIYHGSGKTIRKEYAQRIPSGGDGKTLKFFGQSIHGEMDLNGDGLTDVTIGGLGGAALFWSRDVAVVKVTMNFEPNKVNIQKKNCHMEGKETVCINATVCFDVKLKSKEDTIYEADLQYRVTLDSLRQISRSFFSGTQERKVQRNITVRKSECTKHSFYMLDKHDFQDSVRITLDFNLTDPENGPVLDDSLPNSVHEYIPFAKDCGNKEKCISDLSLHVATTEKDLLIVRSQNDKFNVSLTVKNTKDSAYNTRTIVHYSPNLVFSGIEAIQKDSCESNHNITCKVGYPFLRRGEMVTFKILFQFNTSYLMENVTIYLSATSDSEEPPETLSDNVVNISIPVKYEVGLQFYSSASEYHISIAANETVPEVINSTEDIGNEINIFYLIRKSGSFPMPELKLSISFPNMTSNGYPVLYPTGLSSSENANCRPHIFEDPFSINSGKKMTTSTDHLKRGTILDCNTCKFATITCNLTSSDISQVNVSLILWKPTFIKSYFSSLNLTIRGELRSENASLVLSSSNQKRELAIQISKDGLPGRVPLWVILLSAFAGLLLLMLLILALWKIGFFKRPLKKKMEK
UniProt Q9BXB1, residues 25-951: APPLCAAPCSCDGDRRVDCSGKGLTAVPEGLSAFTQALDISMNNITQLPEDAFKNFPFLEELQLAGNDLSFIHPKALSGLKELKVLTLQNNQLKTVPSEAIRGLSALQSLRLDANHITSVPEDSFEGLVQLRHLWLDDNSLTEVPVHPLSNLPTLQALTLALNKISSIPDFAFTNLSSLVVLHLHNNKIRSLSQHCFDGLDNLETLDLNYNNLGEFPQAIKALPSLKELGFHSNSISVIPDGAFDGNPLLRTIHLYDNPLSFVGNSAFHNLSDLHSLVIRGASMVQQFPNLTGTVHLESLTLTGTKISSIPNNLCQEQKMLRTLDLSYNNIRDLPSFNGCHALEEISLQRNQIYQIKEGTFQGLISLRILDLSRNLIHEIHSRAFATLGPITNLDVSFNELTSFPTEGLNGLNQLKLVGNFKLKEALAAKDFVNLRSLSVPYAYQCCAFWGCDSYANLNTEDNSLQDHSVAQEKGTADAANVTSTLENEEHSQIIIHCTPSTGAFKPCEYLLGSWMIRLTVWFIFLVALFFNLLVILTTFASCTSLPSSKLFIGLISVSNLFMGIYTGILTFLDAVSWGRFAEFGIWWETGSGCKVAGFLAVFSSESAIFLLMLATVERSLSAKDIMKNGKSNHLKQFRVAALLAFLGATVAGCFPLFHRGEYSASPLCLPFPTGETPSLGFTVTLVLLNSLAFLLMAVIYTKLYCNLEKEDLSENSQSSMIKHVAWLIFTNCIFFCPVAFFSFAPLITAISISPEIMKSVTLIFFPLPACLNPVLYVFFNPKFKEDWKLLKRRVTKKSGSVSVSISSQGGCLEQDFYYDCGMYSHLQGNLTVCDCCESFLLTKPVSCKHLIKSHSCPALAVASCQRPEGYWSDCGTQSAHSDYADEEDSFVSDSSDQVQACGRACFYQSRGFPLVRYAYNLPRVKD
UniProt Q68CZ2: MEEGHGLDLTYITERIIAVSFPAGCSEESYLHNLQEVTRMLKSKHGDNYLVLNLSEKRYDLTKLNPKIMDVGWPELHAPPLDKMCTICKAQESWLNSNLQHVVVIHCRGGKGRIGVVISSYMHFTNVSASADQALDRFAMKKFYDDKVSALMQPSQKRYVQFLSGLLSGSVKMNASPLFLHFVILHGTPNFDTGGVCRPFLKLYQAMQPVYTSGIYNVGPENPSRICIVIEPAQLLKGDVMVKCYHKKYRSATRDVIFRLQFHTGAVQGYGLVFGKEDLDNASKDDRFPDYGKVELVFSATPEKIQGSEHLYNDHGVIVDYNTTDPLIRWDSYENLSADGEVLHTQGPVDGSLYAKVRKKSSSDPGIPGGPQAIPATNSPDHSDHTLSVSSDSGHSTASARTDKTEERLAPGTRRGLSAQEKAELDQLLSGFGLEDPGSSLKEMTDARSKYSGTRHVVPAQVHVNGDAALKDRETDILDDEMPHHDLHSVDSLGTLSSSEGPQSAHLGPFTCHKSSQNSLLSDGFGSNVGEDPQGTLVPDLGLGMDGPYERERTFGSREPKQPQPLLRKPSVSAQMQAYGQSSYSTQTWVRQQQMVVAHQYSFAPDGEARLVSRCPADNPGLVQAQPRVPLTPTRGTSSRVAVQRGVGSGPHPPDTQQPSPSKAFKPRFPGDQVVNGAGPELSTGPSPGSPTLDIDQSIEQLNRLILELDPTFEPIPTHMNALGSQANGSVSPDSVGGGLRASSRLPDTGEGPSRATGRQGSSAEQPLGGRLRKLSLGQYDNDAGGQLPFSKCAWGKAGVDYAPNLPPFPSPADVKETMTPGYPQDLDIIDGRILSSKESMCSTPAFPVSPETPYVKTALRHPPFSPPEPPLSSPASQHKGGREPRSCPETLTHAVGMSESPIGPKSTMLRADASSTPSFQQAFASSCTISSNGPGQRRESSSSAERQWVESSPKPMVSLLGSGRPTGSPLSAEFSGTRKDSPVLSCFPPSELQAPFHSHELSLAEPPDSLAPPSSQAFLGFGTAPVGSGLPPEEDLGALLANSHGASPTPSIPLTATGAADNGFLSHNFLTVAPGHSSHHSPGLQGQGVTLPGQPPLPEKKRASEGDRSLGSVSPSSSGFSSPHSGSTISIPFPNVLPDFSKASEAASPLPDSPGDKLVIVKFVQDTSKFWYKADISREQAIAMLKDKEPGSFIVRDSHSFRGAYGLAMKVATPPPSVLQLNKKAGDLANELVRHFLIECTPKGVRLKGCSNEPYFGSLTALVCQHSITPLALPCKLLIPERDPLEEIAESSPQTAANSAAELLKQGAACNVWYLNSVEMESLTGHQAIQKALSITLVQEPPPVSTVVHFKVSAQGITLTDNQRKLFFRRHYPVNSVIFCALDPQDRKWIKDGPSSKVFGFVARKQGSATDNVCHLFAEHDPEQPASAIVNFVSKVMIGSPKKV
UniProt P07305: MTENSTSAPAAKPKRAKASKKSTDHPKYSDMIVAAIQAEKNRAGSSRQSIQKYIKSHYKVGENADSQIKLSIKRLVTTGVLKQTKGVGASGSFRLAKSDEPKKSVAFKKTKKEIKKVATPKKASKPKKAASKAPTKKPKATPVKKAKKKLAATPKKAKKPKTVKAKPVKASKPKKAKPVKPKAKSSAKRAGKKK
UniProt P21675: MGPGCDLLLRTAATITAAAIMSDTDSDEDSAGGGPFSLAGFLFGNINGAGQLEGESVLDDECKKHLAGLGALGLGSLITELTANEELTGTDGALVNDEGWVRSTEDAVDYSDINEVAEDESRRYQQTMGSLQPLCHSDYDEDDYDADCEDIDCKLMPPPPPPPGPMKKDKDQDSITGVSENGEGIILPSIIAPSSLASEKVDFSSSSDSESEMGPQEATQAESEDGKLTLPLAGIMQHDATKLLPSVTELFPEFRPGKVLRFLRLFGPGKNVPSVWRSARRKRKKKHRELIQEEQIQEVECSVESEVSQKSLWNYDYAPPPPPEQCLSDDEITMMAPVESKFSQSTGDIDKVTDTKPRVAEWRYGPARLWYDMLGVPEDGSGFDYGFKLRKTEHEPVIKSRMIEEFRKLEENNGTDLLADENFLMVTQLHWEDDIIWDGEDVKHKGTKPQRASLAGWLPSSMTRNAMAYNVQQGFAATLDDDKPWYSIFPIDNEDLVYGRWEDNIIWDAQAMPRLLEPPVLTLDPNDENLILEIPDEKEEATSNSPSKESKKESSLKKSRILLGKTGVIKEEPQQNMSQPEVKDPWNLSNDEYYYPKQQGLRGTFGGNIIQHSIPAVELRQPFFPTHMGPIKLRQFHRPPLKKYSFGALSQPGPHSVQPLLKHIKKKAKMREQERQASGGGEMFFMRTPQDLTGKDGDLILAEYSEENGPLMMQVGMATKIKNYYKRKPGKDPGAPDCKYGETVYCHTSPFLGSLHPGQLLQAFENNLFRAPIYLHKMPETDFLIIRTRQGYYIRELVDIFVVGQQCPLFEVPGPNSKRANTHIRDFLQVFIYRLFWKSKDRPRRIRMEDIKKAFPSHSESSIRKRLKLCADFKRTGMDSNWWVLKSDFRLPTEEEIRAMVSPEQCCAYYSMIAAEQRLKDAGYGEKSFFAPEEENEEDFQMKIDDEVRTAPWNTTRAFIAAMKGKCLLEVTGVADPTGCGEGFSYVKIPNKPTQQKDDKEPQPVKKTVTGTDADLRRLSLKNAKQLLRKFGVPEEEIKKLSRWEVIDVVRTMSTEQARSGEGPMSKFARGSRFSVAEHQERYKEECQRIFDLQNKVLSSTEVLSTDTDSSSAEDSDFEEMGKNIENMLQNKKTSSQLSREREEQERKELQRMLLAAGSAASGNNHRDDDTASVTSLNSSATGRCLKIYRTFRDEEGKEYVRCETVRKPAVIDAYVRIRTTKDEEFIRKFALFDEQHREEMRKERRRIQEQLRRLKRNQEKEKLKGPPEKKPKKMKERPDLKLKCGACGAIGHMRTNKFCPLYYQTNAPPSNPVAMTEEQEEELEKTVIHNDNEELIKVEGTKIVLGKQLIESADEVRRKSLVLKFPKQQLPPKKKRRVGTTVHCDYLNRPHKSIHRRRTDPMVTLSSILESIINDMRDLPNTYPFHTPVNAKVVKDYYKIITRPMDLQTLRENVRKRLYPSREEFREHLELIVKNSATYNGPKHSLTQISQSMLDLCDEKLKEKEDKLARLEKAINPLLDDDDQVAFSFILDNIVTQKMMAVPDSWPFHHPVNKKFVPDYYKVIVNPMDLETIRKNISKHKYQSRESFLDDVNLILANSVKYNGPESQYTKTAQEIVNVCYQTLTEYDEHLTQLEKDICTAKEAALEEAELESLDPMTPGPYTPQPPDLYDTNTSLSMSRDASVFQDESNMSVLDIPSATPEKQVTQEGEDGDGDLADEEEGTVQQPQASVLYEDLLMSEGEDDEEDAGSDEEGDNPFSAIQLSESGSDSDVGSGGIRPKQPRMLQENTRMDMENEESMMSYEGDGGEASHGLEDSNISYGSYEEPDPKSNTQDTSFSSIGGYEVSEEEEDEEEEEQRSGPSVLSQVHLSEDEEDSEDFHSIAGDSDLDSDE

Results are given in words; binding and its absence hold for the method and conditions named. In cells and extracts the contact can be indirect. A yes stands for co-enrichment or nearness to the bait. Other partners may have been found.

The assay concerns the target β-catenin (human (endogenous in BGC-823)) (UniProt P35222). The assay can be described thus: affinity purification with mass spectrometry; Co-IP/MS: BGC-823 cells lysed in IP lysis buffer, anti-CTNNB1 antibody (1:50) at 4°C overnight, washed three times, SDS-PAGE, silver staining, gel strips analysed by LC-MS/MS; the table's caption speaks of nuclear fractions.

For the molecule “Keratin, type I cytoskeletal 19 (from UniProt P08727 1-400)”, the binding result is “binds”.

Turning to “Integrin alpha-1 (from UniProt P56199 29-1179)”, the binding entry was “binds”.

Turning to “Leucine-rich repeat-containing G-protein coupled receptor 4 (from UniProt Q9BXB1 25-951)”, the binding result was “binds”.

Take Tensin-3 (from UniProt Q68CZ2 1-1445): the binding result is recorded as “binds”.

On to “Histone H1.0 (from UniProt P07305 1-194)”, for which the binding result is listed as “binds”.

Regarding “KLF Transcription Factor 11 (from UniProt O14901 1-512)”, the binding entry was “binds”.

For the molecule “Transcription initiation factor TFIID subunit 1 (from UniProt P21675 1-1893)”, the binding result was “binds”.

With “Sickle tail protein homolog (from UniProt Q5T5P2 1-1943)”, the binding entry was “binds”.

B1: Plakophilin 2 (protein, UniProt Q99959 1-881)
chain: MAAPGAPAEYGYIRTVLGQQILGQLDSSSLALPSEAKLKLAGSSGRGGQTVKSLRIQEQVQQTLARKGRSSVGNGNLHRTSSVPEYVYNLHLVENDFVGGRSPVPKTYDMLKAGTTATYEGRWGRGTAQYSSQKSVEERSLRHPLRRLEISPDSSPERAHYTHSDYQYSQRSQAGHTLHHQESRRAALLVPPRYARSEIVGVSRAGTTSRQRHFDTYHRQYQHGSVSDTVFDSIPANPALLTYPRPGTSRSMGNLLEKENYLTAGLTVGQVRPLVPLQPVTQNRASRSSWHQSSFHSTRTLREAGPSVAVDSSGRRAHLTVGQAAAGGSGNLLTERSTFTDSQLGNADMEMTLERAVSMLEADHMLPSRISAAATFIQHECFQKSEARKRVNQLRGILKLLQLLKVQNEDVQRAVCGALRNLVFEDNDNKLEVAELNGVPRLLQVLKQTRDLETKKQITDHTVNLRSRNGWPGAVAHACNPSTLGGQGGRITRSGVRDQPDQHGLLWNLSSNDKLKNLMITEALLTLTENIIIPFSGWPEGDYPKANGLLDFDIFYNVTGCLRNMSSAGADGRKAMRRCDGLIDSLVHYVRGTIADYQPDDKATENCVCILHNLSYQLEAELPEKYSQNIYIQNRNIQTDNNKSIGCFGSRSRKVKEQYQDVPMPEEKSNPKGVEWLWHSIVIRMYLSLIAKSVRNYTQEASLGALQNLTAGSGPMPTSVAQTVVQKESGLQHTRKMLHVGDPSVKKTAISLLRNLSRNLSLQNEIAKETLPDLVSIIPDTVPSTDLLIETTASACYTLNNIIQNSYQNARDLLNTGGIQKIMAISAGDAYASNKASKAASVLLYSLWAHTELHHAYKKAQFKKTDFVNSRTAKAYHSLKD
B1: the binding entry is recorded as “binds”.
